Assay: Aerosol deposition in Vitrocell inserts (cell free controls)
Settings: for Mean deposition: 2.5% drug in propylene glycol, cell free inserts

**Q.** With CCN(CC)CCCC(C)Nc1ccnc2cc(Cl)ccc12 (stereo not shown) [chloroquine] as the compound, how does the Percent deposition (25 puffs) read?
**A.** Its Percent deposition is 0.23%.

**Q.** And the Mean deposition (25 puffs)?
**A.** Its Mean deposition is 7.24 µg.

**Q.** What about the Mean deposition (25 puffs, listed as Chloroquine) of the same compound?
**A.** The Mean deposition was 7.238 ± 0.840 µg.

**Q.** And the Percent deposition (50 puffs)?
**A.** The Percent deposition was 0.21%.

**Q.** What about the Mean deposition (50 puffs) of the same compound?
**A.** The Mean deposition was 13.15 µg.

**Q.** What about the Mean deposition (50 puffs, listed as Chloroquine) of the same compound?
**A.** Its Mean deposition is 13.148 ± 1.348 µg.

**Q.** And the amount deposited (100 puffs, cell free controls)?
**A.** Its amount deposited is 12.91 µg.
